Reference: patent publication US20040110821A1, “GAL3 receptor antagonists for the treatment of affective disorders” (priority 2002, published 2004)
Entries after “also recorded” stand apart in the source; their conditions may differ. At least one structure is not confirmed: it was looked up by name or label, or the drawing left a doubt.

Test system: Male albino Sprague-Dawley rats
Assay: Rat Social Interaction Test (SIT)
Format: in vivo
Conditions: listed as chlordiazepoxide
Method: Rats were allowed to acclimate to the animal care facility for 5 days and were housed singly for 5 days prior to testing. Animals were handled for 5 minutes per day. The design and procedure for the Social Interaction Test was carried out as previously described by Kennett, et al. (1997). On the test day, weight matched pairs of rats (±5%), unfamiliar to each other, were given identical treatments and returned to their home cages. Animals were randomly divided into 5 treatment groups, with 5 pairs per group, and were given one of the following i.p. treatments: Example 92 (10, 30 or 100 mg/kg), vehicle (1 ml/kg) or chlordiazepoxide (5 mg/kg). Dosing was 1 hour prior to testing. Rats were subsequently placed in a white perspex test box or arena (54×37×26 cm), whose floor was divided up into 24 equal squares, for 15 minutes. An air conditioner was used to generate background noise and to keep the room at approximately 74° F. All sessions were videotaped using a JVC camcorder (model GR-SZ1, Elmwood Park, N.J.) with either TDK (HG ultimate brand) or Sony 30 minute videocassettes. All sessions were conducted between 1:00-4:30 P.M. Active social interaction, defined as grooming, sniffing, biting, boxing, wrestling, following and crawling over or under, was scored using a stopwatch (Sportsline model no. 226, 1/100 sec. discriminability). The number of episodes of rearing (animal completely raises up its body on its hind limbs), grooming (licking, biting, scratching of body), and face washing (i.e. hands are moved repeatedly over face), and number of squares crossed were scored. Passive social interaction (animals are lying beside or on top of each other) was not scored. All behaviors were assessed later by an observer who was blind as to the treatment of each pair. At the end.of each test, the box was thoroughly wiped with moistened paper towels.
Male albino Sprague-Dawley rats (Taconic Farms, N.Y.) were housed in pairs under a 12 hr light dark cycle (lights on at 0700 hrs.) with free access to food and water.
Example 92 was dissolved in 100% DMSO (Sigma Chemical Co., St. Louis, Mo.). Chlordiazepoxide (purchased from Sigma Chemical Co., St. Louis, Mo.) was dissolved in double distilled water. The vehicle consisted of 50% DMSO (v/v). All drug solutions were made up 10 minutes prior to injection and the solutions were discarded.
Example 34 was dissolved in 5% lactic acid, v/v. The vehicle consisted of 100% dimethylacetamide (DMA) and this was used to make up all drug solutions. All drug solutions were made up fresh each day and any unused solutions were discarded at the end of the test day. The volume of drug solution administered was 1 ml/kg.
The social interaction data (time interacting, rearing and squares crossed) were subjected to a randomized, one-way ANOVA and post hoc tests conducted using the Student-Newman-Keuls test. The data were subjected to a test of normality (Shapiro-Wilk test). The data were analyzed using the GBSTAT program, version 6.5 (Dynamics Microsystems, Inc., Silver Spring, Md., 1997). All data are presented as means ±S.E.M.

[1] = 5 mg/kg i.p., 1 hour before 15 min test, unfamiliar rats
[2] = 5 mg/kg p.o., one hour before test, unfamiliar cage mates in a familiar arena

## CNC1=Nc2ccc(Cl)cc2C(c2ccccc2)=[N+]([O-])C1 [Chlordiazepoxide, chlordiazepoxide]
[1]
  Grooming Bouts: did not significantly alter the number of grooming bouts
  Social Interaction (sec): significantly increased social interaction; also recorded: significant increase in social interaction
  Squares Crossed: did not significantly alter the number of squares crossed
[2]
  Rearing: not significantly altered
  Social Interaction (sec): significantly increased social interaction
